The record followed here is article doi:10.1101/854497 (bioRxiv, 2020).

The test addresses T1, Pex17p_(167-199) Gal4p fusion (yeast) (UniProt P40155).
T1 sequence: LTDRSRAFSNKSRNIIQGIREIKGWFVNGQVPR
As to the kind of experiment: two-hybrid.

These are yes or no findings as the source states them, for the method shown. Binding calls can cover weak binding; strength is not graded here. Tags and fused reporters may be left off the sequences shown.

“second putative coiled-coil domain of Pex14p plus a C-terminal portion, Gal4p fusion (yeast) (domain or fragment)”: the binding entry is listed as “binds”.
